Two substances from patent publication US20130172529 (published 2013) can be followed below.

Data set [1] in a line: Fmoc solid-phase peptide synthesis; 2-chlorotrityl-type resin; HOBT/DIPCDI. Particulars: whole synthesis.
Data set [2] is described as follows: general procedure: Fmoc solid-phase peptide synthesis; 2-chlorotrityl-type resin; HOBT/DIPCDI. Particulars: whole synthesis.

With “Ac-SDKPDMAEIEKFDKSKLKKTETQEKNPLPSKETIEQEKQAGES-OH”, the difficulty met entry in data set [1] is given as “low purity synthesis crude product, unviable for an industrial process”. In addition, in data set [2], the “final purity (method not given)” value turned out to be 99%, the isolated yield is on record as 50% and the outcome is “gave rise to gels that blocked the reaction. The end product could not be identified”.

The substance Ac-SDAAVDTSSEITTKDLKEKKEVVEEAEN-OH showed a crude yield in data set [2] of 40%.
